This is an account of results in article PMC3891740.

Chains of the proteins cited; added tags and fusions are not shown.
UniProt P06748: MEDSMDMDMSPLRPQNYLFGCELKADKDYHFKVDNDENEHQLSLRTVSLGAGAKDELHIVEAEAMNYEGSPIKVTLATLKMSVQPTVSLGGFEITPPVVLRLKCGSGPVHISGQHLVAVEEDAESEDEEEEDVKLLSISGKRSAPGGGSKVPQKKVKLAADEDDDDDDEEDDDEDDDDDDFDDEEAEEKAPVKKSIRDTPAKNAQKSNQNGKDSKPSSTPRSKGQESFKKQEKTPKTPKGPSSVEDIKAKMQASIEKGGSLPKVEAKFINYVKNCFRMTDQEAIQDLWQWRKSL

No constants are given. Whether binding was seen depends on the method and setting. In cells and extracts the contact can be indirect. These calls come from enrichment with a bait or labelling near it, and not all partners need be listed.

This test deals with FLAG-TMCC1 (FLAG-tagged full-length TMCC1) (human) (UniProt O94876). Kind of test: affinity purification with mass spectrometry; HEK293T transfected with FLAG-TMCC1 or vector; anti-FLAG immunoprecipitation, SDS-PAGE, Coomassie Brilliant Blue R-250 staining, bands identified by mass spectrometry.

For the substance “nucleophosmin (from UniProt P06748 1-294)”, the binding entry was “binds”.
